According to paper PMC9242475:
Results are given in words; binding and its absence hold for the method and conditions named. Binding seen in cells or lysates may run through a third protein. Some binding calls cover weakened binding; strength is not graded here.

Chains of the proteins cited; added tags and fusions are not shown.
UniProt P49792: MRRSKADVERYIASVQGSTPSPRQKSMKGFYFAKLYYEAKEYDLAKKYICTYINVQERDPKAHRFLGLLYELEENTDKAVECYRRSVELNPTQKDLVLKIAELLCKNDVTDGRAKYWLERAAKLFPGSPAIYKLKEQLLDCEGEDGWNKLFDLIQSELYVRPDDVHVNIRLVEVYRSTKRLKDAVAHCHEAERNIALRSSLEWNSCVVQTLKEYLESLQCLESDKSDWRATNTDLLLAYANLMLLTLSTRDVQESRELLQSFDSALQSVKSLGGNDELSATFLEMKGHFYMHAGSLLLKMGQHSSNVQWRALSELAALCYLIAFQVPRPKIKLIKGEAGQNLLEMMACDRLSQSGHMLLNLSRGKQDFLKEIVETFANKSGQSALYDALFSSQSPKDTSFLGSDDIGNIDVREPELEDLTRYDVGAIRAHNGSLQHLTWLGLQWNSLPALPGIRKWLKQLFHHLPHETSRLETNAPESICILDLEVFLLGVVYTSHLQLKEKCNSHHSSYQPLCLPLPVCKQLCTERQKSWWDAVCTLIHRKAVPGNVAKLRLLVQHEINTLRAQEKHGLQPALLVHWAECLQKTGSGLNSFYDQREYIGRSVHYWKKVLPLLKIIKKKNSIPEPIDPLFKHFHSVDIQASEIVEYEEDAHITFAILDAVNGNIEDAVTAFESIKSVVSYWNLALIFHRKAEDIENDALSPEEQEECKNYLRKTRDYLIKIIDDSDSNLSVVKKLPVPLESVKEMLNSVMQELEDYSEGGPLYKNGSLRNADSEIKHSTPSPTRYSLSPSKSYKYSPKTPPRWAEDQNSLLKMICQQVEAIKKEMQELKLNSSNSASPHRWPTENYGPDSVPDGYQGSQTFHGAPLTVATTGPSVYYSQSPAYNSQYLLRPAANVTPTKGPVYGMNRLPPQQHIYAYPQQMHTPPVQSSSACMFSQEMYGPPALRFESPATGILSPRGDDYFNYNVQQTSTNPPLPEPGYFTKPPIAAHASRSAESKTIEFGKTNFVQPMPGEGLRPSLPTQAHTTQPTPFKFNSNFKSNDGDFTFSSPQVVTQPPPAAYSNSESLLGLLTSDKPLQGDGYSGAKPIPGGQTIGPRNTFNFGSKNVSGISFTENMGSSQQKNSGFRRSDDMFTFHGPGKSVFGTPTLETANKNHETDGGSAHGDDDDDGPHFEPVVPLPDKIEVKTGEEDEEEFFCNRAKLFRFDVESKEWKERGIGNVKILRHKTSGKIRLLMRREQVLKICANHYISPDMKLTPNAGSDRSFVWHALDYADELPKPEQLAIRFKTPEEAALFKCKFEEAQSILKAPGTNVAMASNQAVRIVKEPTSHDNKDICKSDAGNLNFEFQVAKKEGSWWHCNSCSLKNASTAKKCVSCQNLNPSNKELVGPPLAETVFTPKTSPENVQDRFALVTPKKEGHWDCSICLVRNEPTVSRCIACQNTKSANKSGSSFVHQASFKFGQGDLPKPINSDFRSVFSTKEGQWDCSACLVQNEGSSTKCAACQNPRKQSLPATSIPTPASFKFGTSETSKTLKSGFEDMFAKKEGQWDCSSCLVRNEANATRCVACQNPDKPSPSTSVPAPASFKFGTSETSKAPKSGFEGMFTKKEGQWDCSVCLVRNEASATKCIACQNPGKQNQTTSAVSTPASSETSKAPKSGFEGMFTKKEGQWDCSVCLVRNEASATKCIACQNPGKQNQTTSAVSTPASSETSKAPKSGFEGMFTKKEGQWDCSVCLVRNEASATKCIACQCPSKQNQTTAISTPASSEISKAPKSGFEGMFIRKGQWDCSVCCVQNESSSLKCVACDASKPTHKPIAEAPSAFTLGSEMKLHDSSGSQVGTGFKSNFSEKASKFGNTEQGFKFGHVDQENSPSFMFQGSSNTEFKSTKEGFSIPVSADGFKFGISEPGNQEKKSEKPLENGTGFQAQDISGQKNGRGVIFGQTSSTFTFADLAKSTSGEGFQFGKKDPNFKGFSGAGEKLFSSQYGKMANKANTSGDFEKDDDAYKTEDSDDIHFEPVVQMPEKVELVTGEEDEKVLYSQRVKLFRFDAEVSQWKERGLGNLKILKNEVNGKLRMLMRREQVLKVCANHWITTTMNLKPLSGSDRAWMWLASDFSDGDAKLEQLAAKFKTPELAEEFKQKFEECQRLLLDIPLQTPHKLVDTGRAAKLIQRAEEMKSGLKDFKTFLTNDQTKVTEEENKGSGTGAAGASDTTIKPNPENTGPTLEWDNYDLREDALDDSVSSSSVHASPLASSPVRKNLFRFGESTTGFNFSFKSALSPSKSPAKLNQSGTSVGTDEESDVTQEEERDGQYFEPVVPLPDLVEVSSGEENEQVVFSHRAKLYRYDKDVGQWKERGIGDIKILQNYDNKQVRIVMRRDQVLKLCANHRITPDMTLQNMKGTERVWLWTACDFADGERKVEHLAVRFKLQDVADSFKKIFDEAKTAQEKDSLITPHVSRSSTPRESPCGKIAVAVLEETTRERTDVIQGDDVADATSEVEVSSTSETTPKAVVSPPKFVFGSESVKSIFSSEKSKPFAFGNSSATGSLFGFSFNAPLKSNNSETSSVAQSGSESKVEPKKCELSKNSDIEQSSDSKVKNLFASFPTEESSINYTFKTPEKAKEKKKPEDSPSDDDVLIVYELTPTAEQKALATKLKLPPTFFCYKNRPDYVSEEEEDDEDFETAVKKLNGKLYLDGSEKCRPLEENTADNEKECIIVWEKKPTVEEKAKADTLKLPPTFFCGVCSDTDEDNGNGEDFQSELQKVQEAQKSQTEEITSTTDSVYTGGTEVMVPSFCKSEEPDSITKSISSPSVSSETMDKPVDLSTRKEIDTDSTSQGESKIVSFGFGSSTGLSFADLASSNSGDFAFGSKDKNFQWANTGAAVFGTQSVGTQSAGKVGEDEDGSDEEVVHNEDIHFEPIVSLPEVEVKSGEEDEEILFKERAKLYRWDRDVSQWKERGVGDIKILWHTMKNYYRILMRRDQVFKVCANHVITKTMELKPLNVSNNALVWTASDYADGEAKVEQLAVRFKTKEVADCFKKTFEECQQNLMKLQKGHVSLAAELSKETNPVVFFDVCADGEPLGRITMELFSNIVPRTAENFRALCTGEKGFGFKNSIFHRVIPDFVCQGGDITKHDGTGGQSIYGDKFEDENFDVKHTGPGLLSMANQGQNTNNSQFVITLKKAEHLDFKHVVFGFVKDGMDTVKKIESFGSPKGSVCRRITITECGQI
UniProt Q93008: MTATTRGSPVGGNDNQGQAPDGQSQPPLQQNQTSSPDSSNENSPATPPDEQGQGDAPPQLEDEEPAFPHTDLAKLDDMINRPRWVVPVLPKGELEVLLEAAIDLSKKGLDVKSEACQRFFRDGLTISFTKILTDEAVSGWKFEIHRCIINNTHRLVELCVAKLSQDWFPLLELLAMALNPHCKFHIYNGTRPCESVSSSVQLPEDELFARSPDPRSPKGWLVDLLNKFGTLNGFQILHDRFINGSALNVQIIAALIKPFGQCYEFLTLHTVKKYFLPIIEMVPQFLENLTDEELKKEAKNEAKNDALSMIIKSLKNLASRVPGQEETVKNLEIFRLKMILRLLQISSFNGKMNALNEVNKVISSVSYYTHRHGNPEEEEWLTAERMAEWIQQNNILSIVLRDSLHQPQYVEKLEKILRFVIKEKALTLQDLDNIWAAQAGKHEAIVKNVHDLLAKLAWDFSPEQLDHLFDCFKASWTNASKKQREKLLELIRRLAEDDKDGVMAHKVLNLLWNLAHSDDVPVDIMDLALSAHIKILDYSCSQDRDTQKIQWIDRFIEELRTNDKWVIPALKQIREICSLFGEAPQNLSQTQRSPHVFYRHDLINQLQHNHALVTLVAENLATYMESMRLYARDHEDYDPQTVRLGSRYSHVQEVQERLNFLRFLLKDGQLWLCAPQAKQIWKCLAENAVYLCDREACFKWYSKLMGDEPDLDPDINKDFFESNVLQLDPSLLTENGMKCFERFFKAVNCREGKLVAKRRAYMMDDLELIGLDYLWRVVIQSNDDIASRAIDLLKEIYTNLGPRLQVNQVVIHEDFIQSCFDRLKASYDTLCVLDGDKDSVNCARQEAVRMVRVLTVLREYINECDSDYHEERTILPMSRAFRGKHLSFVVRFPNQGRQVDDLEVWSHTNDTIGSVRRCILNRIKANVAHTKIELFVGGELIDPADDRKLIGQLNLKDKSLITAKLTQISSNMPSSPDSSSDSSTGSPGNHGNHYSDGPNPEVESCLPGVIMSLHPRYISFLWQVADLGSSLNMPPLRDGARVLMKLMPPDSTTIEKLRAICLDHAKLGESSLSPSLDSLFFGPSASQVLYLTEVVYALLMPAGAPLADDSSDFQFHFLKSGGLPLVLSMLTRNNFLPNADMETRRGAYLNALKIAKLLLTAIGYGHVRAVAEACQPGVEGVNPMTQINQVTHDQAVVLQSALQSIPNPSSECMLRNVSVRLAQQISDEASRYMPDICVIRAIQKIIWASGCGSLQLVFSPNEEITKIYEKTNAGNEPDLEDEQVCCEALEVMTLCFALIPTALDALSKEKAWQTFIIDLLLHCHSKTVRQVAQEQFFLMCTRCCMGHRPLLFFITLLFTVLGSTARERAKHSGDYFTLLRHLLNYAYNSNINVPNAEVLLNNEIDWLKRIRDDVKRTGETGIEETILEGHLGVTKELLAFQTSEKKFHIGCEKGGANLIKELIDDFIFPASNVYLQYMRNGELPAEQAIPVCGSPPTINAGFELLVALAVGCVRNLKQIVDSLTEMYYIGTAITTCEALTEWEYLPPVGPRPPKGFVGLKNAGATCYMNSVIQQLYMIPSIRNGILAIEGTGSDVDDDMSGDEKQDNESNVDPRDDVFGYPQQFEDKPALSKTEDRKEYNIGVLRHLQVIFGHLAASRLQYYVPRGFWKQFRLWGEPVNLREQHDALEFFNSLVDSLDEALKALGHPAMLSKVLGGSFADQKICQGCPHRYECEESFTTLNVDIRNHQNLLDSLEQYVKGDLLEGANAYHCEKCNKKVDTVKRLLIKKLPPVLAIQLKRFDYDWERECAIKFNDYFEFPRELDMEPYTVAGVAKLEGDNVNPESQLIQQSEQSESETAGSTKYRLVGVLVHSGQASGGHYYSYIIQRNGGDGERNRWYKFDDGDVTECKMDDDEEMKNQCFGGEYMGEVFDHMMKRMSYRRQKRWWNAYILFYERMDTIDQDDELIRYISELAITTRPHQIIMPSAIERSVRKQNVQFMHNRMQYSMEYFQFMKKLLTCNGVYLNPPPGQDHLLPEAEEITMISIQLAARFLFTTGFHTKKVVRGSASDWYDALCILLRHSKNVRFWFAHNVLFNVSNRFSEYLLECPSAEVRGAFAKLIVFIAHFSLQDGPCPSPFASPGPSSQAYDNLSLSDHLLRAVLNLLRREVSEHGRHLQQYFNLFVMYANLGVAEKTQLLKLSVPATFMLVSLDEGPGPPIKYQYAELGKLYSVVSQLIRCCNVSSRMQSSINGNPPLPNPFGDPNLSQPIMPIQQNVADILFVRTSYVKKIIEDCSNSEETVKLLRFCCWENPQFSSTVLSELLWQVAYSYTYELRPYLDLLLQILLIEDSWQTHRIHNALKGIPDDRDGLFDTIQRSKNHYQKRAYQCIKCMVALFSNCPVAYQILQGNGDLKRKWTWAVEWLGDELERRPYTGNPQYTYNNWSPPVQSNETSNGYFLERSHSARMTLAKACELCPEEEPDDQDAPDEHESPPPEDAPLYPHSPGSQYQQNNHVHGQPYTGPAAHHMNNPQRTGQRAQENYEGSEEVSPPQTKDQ

Legend:
[1] = molecular target: Ran-binding protein 2 (human (endogenous in HEK293)) (UniProt P49792); test: co-IP
[2] = molecular target: ubiquitin-specific protease 9x (human (endogenous in HEK293)) (UniProt Q93008); test: co-IP

B1: HAdV-C5 viral protein IIIa in infected cells (protein, UniProt P12537 1-570)
chain: MMQDATDPAVRAALQSQPSGLNSTDDWRQVMDRIMSLTARNPDAFRQQPQANRLSAILEAVVPARANPTHEKVLAIVNALAENRAIRPDEAGLVYDALLQRVARYNSGNVQTNLDRLVGDVREAVAQRERAQQQGNLGSMVALNAFLSTQPANVPRGQEDYTNFVSALRLMVTETPQSEVYQSGPDYFFQTSRQGLQTVNLSQAFKNLQGLWGVRAPTGDRATVSSLLTPNSRLLLLLIAPFTDSGSVSRDTYLGHLLTLYREAIGQAHVDEHTFQEITSVSRALGQEDTGSLEATLNYLLTNRRQKIPSLHSLNSEEERILRYVQQSVSLNLMRDGVTPSVALDMTARNMEPGMYASNRPFINRLMDYLHRAAAVNPEYFTNAILNPHWLPPPGFYTGGFEVPEGNDGFLWDDIDDSVFSPQPQTLLELQQREQAEAALRKESFRRPSSLSDLGAAAPRSDASSPFPSLIGSLTSTRTTRPRLLGEEEYLNNSLLQPQREKNLPPAFPNNGIESLVDKMSRWKTYAQEHRDVPGPRPPTRRQRHDRQRGLVWEDDDSADDSSVLDLGGS
- binding [1]: binds
- binding [2]: binds
